Test results taken from PubChem BioAssay AID493014 (National Center for Advancing Translational Sciences (NCATS), 2011).
Out of some 340,000 compounds screened, about 170 (0.05%) were called active. The inconclusive results got no clear call from the source; some entries with a clear call stand among them for comparison. Calls follow the shape of the dose curve; as a rule, active = well fitted inhibition curve with a large enough effect in the signal ratio, with a control signal flat (not every such curve was filed as active); inconclusive = small, poorly fitted or top-dose-only effect, or effect the other way, or a change in a side signal; inactive = flat fitted curve, though single readings scatter; the % refers to the signal ratio. A potency beside an inconclusive call is a rough fit, not a confirmed value.

Assay: qHTS Assay to Find Inhibitors of Chronic Active B-Cell Receptor Signaling;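 as to activity change, negative = inhibition: plate controls were basal doxycycline-induced cells for no effect and cells given 10 µM MG132 for full effect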
Conditions: ABC-DLBCL IkBa-CBG/CBR reporter, luminescence ratio (green luciferase fused to IkBa over red control in TMD8 lymphoma cells), 4 h; activity change, negative = inhibition: at 46.1 µM (top of the series)
How it was run: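 Compounds up to 46 uM were incubated four hours with TMD8 cells whose green CBG68 luciferase is fused to IkappaBalpha; red CBR luminescence normalised the signal, and concentration-effect curves were fitted to fusion, red and ratio data.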
Potency is read from the fitted curve at half-maximal effect.

Structure (SMILES) | activity change, negative = inhibition | Potency
O=C(CC(=O)c1ccccc1O)c1cccc(F)c1 | inactive | 
CCCN(Cc1nc(-c2ccc(Cl)cc2)no1)CC1CCCO1 (stereo not given) | inconclusive: 16.8% | 
O=C1c2cccc3c(O)ccc(c23)C(=O)N1Cc1ccccc1 |  | inconclusive: 0.58 µM [activator, full curve, poor fit]
CCCCOc1ccc(C(=O)N(C)CC(=O)Nc2ccc(C)cc2)cc1 | inactive | 
O=C(c1ccc(NS(=O)(=O)c2ccccc2)cc1)N1CCCC1 | inconclusive: 1.96% | 
CCCC(c1nnnn1Cc1ccco1)N1CCN(c2cc(Cl)ccc2C)CC1 (stereo not given) | inactive | 
CCOC(=O)c1[nH]c(C)c(C(=O)OCc2c(C)noc2C)c1C | inconclusive: -24.9% | 
COc1ccccc1N1CCN(C(=O)c2cc(C3CC3)on2)CC1 | inactive | 
CCC(=O)Oc1cccc(C(=O)Nc2cccc(NC(=O)c3ccco3)c2)c1 |  | inconclusive: 12.6 µM [falling, partial curve]
Cc1cc2ncc(-c3cccc(Cl)c3)cn2n1 | inconclusive: 14.1% | 
Cc1ccccc1NC(=S)N1CCN(c2ccccc2)CC1 | inactive | 
CCCCOc1ccc(C2OC34CCCCC3C(C#N)(C#N)C2(C#N)C(=N)O4)cc1 (stereo not given) | inactive | 
CN1CCc2c(sc(NC(=O)c3cc(Cl)sc3Cl)c2C(N)=O)C1 | inconclusive: 4.9% | 
O=C(CCCCCCCC(=O)NNC(=O)Nc1ccccc1)NNC(=O)Nc1ccccc1 | inconclusive: 14.7% | 
COc1ccc(NC(=O)CSc2nnc(NC(=O)Nc3ccccc3)s2)c(OC)c1 |  | inconclusive: 0.2 µM [rising, full curve, poor fit]
C=CCNc1ccc(C(=O)O)cc1 | inactive | 
COc1ccc(C[C@H]2CN3C(=NC[C@H]3C)N2CCNC(=O)c2ccc(C)c(Br)c2)cc1 | inactive | 
CCOC(=O)C(=CNNc1ccccc1)C(=O)OCC | inconclusive: -25.5% | 
CC(C)c1ccc(NC(=O)COc2ccc(F)cc2C(=O)c2cnn(-c3ccccc3)c2)cc1 | inconclusive: 3.25% | 
O=C(Cc1ccc(Cl)cc1)Nc1ccc(S(=O)(=O)Nc2ncccn2)cc1 | inconclusive: 3.92% | 
CC1Cc2ccccc2N1C(=O)CSc1nc2cc3c(cc2cc1C#N)OCO3 (stereo not given) | inactive | 
COc1cc(/C=C/c2ccc3cccc([N+](=O)[O-])c3n2)ccc1OCC#N | inconclusive: -13.2% | 
Cc1ccc(-n2nc(C)c(C(=O)O)n2)c(C)c1 | inconclusive: -2.84% | 
C[C@H](CO)N1C[C@H](C)[C@@H](CN(C)S(=O)(=O)c2ccccc2)Oc2ccc(NC(=O)Cc3ccccc3)cc2C1=O | inconclusive: -3.47% | 
O=C(COc1ccc2ccc(=O)oc2c1)NCCCn1ccnc1 | inactive | 
Cc1cc(-c2n[nH]c(=S)n2/N=C/C=C/c2ccco2)n[nH]1 | inactive | 
COCCOc1cnn(-c2cc(Oc3ccc(C)cc3)ncn2)c(=O)c1Cl | inconclusive: -15.2% | 

Ordered by heavy-atom count (low to high): 3 of the compounds above
Structure (SMILES) | activity change, negative = inhibition | Potency
O=C1c2cccc3c(O)ccc(c23)C(=O)N1Cc1ccccc1 |  | inconclusive: 0.58 µM [activator, full curve, poor fit]
CCCC(c1nnnn1Cc1ccco1)N1CCN(c2cc(Cl)ccc2C)CC1 (stereo not given) | inactive | 
COc1ccc(C[C@H]2CN3C(=NC[C@H]3C)N2CCNC(=O)c2ccc(C)c(Br)c2)cc1 | inactive | 

Next part:

Structure (SMILES) | activity change, negative = inhibition | Potency
O=C(Nc1ccccc1Cl)N1CCn2c(nc3ccccc32)C1 |  | inconclusive: 13 µM [falling, partial curve]
O=C(O)c1ccc(NC(=S)NC(=O)c2cncc(Br)c2)cc1 |  | inconclusive: 6.31 µM [falling, partial curve, poor fit]
O=C(Nc1ccc2nc(C3CC3)n(Cc3ccc(F)cc3)c(=O)c2c1)c1ccco1 | inconclusive: -12.4% | 
Cc1ccc(SCC(=O)NCCc2ccccc2)cc1 | inconclusive: 6.62% | 
COc1ccc(C)cc1NC(=O)C1CC(=O)N(CCc2ccccc2)C1 (stereo not given) | inactive | 
O=C(Nc1nc2c(F)cc(F)cc2s1)c1ccco1 |  | inconclusive: 35.5 µM [falling, single point]
O=C(NC(=S)Nc1nc2c(s1)CCCC2)c1ccccc1 | inactive | 
O=S(=O)(Nc1cccc(-n2cnnn2)c1)c1cc(Br)ccc1Br |  | inconclusive: 11.2 µM [falling, partial curve]
O=C(CN1C(=O)C2CCCCC2C1=O)Nc1nc(-c2ccccn2)cs1 (stereo not given) | inconclusive: 17.5% | 
COC(=O)c1sc(S(=O)(=O)NC(C)C(=O)O)c(C(=O)OC)c1C (stereo not given) | inactive | 
COc1ccc(/C=N/Nc2nc3ccccc3c(=O)n2-c2ccccc2)cc1OC |  | inconclusive: 0.0411 µM [rising, full curve, poor fit]
O=C(COc1ncnc2cc([N+](=O)[O-])ccc12)NCc1ccc2c(c1)OCO2 |  | inconclusive: 18.4 µM [falling, partial curve, poor fit]
O=C(NCc1ccc(F)cc1)c1cc2ccccn2n1 | inconclusive: 7.39% | 
C#CCOCCOCCOCCNc1nc(N2CCOCC2)nc(N2CCN(C(=O)[C@H](Cc3ccc(O)cc3)n3cc([C@@H](N)C(C)CC)nn3)CC2)n1 (stereo not given in full) | inconclusive: -6.46% | 
CCCCC(=NCCc1c(C)[nH]c2ccc(OC)cc12)C1=C(O)CC(c2ccccc2)CC1=O (stereo not given) | inconclusive: -15.3% | 
CCOC(=O)C1(Cc2cccc(OC)c2)CCCN(Cc2cc(C(C)C)n[nH]2)C1 (stereo not given) | inconclusive: -4.4% | 
CN(C)CCCn1c(=O)n(Cc2ccco2)c(=O)c2c3c(sc21)CCCCC3 | inconclusive: -23.9% | 
COc1ccc(-c2cn(-c3ccc(OC)cc3)c3[n+]2-c2ccccc2CC3)cc1 | inconclusive: -19.3% | 
CCOc1cccc2sc(=NC(=O)c3ccco3)n(CC(=O)OC)c12 | inconclusive: 14.1% | 
CC(=O)c1sc(NC(=O)c2ccc3c(c2)OCO3)nc1C |  | inconclusive: 25.1 µM [falling, single point]
Cc1ccc(N(Cc2cc3ccccc3[nH]c2=O)S(C)(=O)=O)cc1 |  | inconclusive: 15.8 µM [falling, single point]
COc1ccc(Nc2cc(C)nc3ncnn23)c(OC)c1 |  | inconclusive: 16.4 µM [falling, single point]
CCCCCCC(C)n1[nH]c(=O)c2c(C)cc(=O)[nH]c21 (stereo not given) | inactive | 
COc1ccc(CCNc2c(C)c(C)nc3ncnn23)cc1 | inactive | 
CN(c1ccccc1)S(=O)(=O)c1ccc(C(=O)OCC(=O)NCc2cccs2)cc1 | inactive | 
COc1cccc(/C=N/NC(=O)c2ccc(COc3ccc(Cl)cc3Cl)o2)c1 | inconclusive: -13.4% | 
COc1ccc(C(=O)C2CCCN(C/C=C/c3ccccc3OC)C2)c(OC)c1 (stereo not given) |  | inconclusive: 15.8 µM [falling, single point]

Record cards, from the list above.
`O=C(c1ccc(NS(=O)(=O)c2ccccc2)cc1)N1CCCC1` as listed: activity change, negative = inhibition: inconclusive: 1.96%
`Cc1ccc(N(Cc2cc3ccccc3[nH]c2=O)S(C)(=O)=O)cc1` as listed: Potency: inconclusive: 15.8 µM [falling, single point]

Next part:

Structure (SMILES) | activity change, negative = inhibition | Potency
CC(CCc1ccccc1)NC(=O)/C=C/c1ccccc1 (stereo not given) | inconclusive: 3.88% | 
FC(F)(F)c1cnc2c(c1)Nc1ccccc1S2 | inconclusive: 7.95% | 
COc1cc(/C=c2\sc3n(c2=O)C(c2ccccc2)C(c2ccccc2)=NN=3)ccc1O (stereo not given) | inactive | 
C/C(CC(=O)Nc1ccc([N+](=O)[O-])cc1)=N\NC(=O)c1ccccc1[N+](=O)[O-] |  | inconclusive: 17.8 µM [falling, partial curve]
Cc1ccc(NS(=O)(=O)c2cc([N+](=O)[O-])ccc2NNC(=S)Nc2cccc(Cl)c2)c(C)c1 |  | inconclusive: 11.6 µM [rising, partial curve, poor fit]
COc1ccc(C(=O)Nc2nc3ccccc3[nH]2)cc1 |  | inconclusive: 3.98 µM [rising, full curve, poor fit]
CCOC(=O)c1ccc(NC(=O)c2c(NCc3sccc3C)sc3c2CCCCC3)cc1 |  | inconclusive: 35.5 µM [falling, single point]
CC(C)(C)c1ccc(C(=O)NC(Cc2c[nH]c3ccccc23)C(=O)OCC(=O)c2ccccc2)cc1 (stereo not given) | inconclusive: 25.1% | 
CCOC(=O)C1=C(C)NC(=O)NC1c1c(OCC(=O)N2CCCCC2)ccc2ccccc12 (stereo not given) | inconclusive: 0.521% | 
COc1ccc(S(=O)(=O)N2CCOCC2)cc1NC(=O)c1ccc(-n2nc(C)cc2C)cc1 | inconclusive: 0.138% | 
Cc1n[nH]c(C)c1N1C(=O)c2cccc3c(Br)ccc(c23)C1=O | inconclusive: -7.97% | 
COc1ccccc1/C=C/C=N/N1CCN(c2ccccn2)CC1 | inconclusive: -9.47% | 
S=C(NCCCN1CCOCC1)Nc1ccc(Nc2ccccc2)cc1 | inactive | 
O=C(N/N=C/c1cc([N+](=O)[O-])ccc1O)c1ccncc1 | inactive | 
O=C1CC(c2ccco2)CC(O)=C1C=NCCN1CCNCC1 (stereo not given) | inconclusive: -18.9% | 
COc1cc(Cl)c(CN2CCC(CCC(=O)NC3CC3)CC2)cc1OC | inactive | 
Cc1ccc2c(c1)NC(=O)C(CC(=O)NCCCN1CCCCC1C)O2 (stereo not given) |  | inconclusive: 29.1 µM [falling, partial curve, poor fit]
S=c1nc2ccccc2c2nc(-c3cccnc3)[nH]n12 | inconclusive: 2.79% | 
CC(=O)Nc1cccc(NC(=O)/C=C/c2ccc(S(=O)(=O)N3CCOCC3)cc2)c1 |  | inconclusive: 20.6 µM [falling, partial curve]
COC(=O)C1=CN(c2ccc(OC)cc2)C=C(C(=O)OC)C1c1cc(OC)c(OC)cc1OC | inconclusive: 11.4% | 
COc1ccc(NC(=O)c2cc(C3CC3)nc3c2cnn3C(C)C)cc1OC | inconclusive: -5.3% | 
COc1ccc(-c2csc(NC(=O)c3ccccc3S(C)(=O)=O)n2)cc1 | inconclusive: 2.93% | 
CC(C)C[C@H](NC(=O)c1cc2cc(Cl)ccc2n1C)C(=O)N1CCC(C(=O)O)CC1 | inactive | 
CCCCn1c(-c2cccc(Br)c2)nc2cc3[nH]c(=O)c(C(C)C)nc3cc21 |  | inconclusive: 14.1 µM [rising, partial curve, poor fit]
CCc1nnc2c(NCCc3ccc(OC)c(OC)c3)nc3ccccc3n12 | inconclusive: 5.64% | 
O=C(Cn1cnc2c(nnn2Cc2ccccc2F)c1=O)N1CCN(c2ccccc2)CC1 | inconclusive: 2.84% | 
